Paper PMC5570191

Protein sequences, listed by entry. Tags and fused reporters are not part of them.
UniProt Q6WKZ8: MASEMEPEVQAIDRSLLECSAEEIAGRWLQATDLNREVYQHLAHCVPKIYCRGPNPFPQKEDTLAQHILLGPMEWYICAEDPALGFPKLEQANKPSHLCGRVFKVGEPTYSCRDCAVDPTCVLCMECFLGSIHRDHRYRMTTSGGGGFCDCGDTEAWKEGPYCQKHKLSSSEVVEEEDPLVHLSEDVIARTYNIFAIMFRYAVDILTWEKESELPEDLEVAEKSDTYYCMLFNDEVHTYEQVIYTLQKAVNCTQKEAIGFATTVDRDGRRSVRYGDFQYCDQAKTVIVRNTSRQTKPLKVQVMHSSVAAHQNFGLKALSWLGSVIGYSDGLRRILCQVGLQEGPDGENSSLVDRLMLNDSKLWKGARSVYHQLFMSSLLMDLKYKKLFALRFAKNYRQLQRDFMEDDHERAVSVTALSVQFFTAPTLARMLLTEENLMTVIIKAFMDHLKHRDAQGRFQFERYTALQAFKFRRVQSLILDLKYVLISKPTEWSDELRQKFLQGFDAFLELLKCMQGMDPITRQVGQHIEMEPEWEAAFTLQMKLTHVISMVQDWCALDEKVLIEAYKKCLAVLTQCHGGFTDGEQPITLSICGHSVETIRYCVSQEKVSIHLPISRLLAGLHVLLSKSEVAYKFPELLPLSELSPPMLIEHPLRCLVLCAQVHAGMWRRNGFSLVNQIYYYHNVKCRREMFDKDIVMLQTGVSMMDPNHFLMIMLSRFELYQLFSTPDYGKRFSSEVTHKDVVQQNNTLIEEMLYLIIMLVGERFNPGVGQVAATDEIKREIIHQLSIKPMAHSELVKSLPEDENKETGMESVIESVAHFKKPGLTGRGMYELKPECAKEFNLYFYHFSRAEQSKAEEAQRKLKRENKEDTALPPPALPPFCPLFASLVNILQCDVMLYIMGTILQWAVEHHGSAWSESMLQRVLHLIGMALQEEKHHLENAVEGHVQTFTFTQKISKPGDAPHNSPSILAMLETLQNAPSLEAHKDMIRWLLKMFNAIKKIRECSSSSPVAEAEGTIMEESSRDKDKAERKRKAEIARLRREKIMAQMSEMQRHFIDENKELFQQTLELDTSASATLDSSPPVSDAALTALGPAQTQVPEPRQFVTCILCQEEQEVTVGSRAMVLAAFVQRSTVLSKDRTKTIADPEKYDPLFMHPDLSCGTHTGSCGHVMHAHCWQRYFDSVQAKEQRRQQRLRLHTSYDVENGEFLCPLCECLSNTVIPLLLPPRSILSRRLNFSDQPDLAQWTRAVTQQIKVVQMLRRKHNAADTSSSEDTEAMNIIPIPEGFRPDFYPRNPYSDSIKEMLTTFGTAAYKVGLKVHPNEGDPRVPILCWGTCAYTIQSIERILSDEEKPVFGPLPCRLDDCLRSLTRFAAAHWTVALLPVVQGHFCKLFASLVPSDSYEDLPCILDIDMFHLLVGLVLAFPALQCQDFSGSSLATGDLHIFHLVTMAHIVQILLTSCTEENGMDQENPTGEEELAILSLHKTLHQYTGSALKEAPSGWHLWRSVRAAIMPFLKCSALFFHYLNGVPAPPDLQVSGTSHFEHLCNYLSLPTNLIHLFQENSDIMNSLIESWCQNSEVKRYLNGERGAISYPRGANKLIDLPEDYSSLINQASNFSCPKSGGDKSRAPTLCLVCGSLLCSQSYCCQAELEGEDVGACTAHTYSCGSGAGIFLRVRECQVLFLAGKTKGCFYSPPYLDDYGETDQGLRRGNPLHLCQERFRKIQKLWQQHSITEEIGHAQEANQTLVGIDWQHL

Target: T1, mouse TEX19.1-YFP (stably expressed in mouse ESCs) (mouse) (UniProt Q99MV2)
T1 sequence: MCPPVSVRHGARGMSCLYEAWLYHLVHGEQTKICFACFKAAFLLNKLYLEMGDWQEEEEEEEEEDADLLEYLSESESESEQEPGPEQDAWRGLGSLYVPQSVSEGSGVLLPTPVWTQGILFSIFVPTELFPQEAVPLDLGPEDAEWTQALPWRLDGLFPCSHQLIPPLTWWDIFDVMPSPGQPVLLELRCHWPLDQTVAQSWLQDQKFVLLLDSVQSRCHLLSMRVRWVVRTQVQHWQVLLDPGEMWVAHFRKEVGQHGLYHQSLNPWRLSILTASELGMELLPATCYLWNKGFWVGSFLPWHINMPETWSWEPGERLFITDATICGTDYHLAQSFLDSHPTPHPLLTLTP
Assay: affinity purification with mass spectrometry; GFP-Trap agarose IP from cytoplasmic extracts of mouse ESCs stably expressing TEX19.1-YFP or YFP, 90 min at 4°C; colloidal blue gel, in-gel trypsin digestion, MALDI TOF/TOF

binding: binds
Substance: endogenous mouse UBR2 (from UniProt Q6WKZ8 1-1755) (enzyme)

These are yes or no findings as the source states them, for the method shown. Binding seen in cells or lysates may run through a third protein. These calls come from enrichment with a bait or labelling near it, and not all partners need be listed. Tags and fused reporters may be left off the sequences shown.
